No constants are given. Whether binding was seen depends on the method and setting. In cells and extracts the contact can be indirect. Some results given as binding are weak or reduced against the parent protein; the word gives no strength. Sequences can lack the tags named with a protein.
Target: T1, GST-galectin-8 (rat) (UniProt Q62665)
T1 sequence: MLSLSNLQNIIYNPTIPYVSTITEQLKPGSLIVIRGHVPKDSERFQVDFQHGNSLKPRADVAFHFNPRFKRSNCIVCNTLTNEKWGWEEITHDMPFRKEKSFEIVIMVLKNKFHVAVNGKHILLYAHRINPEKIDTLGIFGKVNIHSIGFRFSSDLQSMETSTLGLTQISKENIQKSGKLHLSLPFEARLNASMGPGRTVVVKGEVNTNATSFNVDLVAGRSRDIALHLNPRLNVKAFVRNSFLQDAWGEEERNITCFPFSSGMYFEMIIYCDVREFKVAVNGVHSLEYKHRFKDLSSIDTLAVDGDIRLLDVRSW
Assay: pull-down; GST-gal-8-loaded beads; proteins of newborn mouse calvaria incubated 16 hr at 4°C; washed in PBS+1% Triton X-100; eluted with 0.5M lactose; SDS-PAGE and Western blotting; GST-loaded beads as control; only the target purified

B1: urokinase plasminogen activator receptor (uPAR), from calvaria of newborn mice (receptor, UniProt P35456 24-298)
chain: LQCMQCESNQSCLVEECALGQDLCRTTVLREWQDDRELEVVTRGCAHSEKTNRTMSYRMGSMIISLTETVCATNLCNRPRPGARGRAFPQGRYLECASCTSLDQSCERGREQSLQCRYPTEHCIEVVTLQSTERSLKDEDYTRGCGSLPGCPGTAGFHSNQTFHFLKCCNYTHCNGGPVLDLQSFPPNGFQCYSCEGNNTLGCSSEEASLINCRGPMNQCLVATGLDVLGNRSYTVRGCATASWCQGSHVADSFPTHLNVSVSCCHGSGCNSPTG
With B1 the binding was “binds”.

— publication PMC4424493
